# Results taken from PMC10491536.
# By UniProt entry, the sequences of proteins in these tests, tags left out. Where a name states a change or a piece, a line headed by the entry shows the natural chain unless it says otherwise. Residues count along the entry.
# UniProt Q9D6F4: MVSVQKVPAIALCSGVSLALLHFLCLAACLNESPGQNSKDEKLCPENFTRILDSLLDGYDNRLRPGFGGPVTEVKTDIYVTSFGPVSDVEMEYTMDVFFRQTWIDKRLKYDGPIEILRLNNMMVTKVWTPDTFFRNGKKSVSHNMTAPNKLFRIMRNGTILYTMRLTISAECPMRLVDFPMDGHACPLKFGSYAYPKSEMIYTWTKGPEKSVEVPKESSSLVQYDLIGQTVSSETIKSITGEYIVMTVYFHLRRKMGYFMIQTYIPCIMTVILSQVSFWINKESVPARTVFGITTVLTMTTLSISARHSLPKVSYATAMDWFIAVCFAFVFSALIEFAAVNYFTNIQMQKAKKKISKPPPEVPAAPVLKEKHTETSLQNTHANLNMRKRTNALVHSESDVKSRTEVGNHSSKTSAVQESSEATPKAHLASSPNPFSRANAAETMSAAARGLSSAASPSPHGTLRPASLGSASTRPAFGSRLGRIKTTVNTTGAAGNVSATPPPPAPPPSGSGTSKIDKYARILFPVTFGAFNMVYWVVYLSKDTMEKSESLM
# endogenous α4 subunit of GABAAR from adult mouse hippocampus (mouse (endogenous in hippocampus)): residues 36-552 of Q9D6F4
# UniProt P24385: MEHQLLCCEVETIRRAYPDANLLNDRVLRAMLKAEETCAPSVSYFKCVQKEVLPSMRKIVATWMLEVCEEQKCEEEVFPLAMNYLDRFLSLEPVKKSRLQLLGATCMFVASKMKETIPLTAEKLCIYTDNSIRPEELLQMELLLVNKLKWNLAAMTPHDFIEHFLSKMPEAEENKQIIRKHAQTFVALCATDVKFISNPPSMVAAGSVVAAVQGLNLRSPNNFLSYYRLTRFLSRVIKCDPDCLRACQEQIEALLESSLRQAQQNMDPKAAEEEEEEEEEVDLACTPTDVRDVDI
# UniProt P25322: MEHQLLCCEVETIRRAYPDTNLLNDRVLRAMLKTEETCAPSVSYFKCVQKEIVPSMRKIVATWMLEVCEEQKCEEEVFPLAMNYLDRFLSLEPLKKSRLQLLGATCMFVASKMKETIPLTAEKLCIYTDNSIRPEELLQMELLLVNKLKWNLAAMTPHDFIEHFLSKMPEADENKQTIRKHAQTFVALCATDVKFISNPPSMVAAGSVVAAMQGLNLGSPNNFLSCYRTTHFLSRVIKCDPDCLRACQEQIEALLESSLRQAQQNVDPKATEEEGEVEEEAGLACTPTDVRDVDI
# These are yes or no findings as the source states them, for the method shown. For part of these data: Binding seen in cells or lysates may run through a third protein. Some results given as binding are weak or reduced against the parent protein; the word gives no strength.
# Legend:
# [1] = biological target: GST fusion of the C-terminus of α4 (354-552aa) (mouse) (UniProt Q9D6F4); assay: pull-down; 400 ng of GST or GST fusion immobilised on Glutathione-Sepharose 4B beads, incubated with in vitro-translated Flag-Ccnd1; 20 mM HEPES-KOH pH 7.5, 150 mM KCl, 5 mM MgCl2, 0.5 mM EDTA, 0.1% NP-40, 30 min at room temperature; only the target purified
# [2] = biological target: Cyclin D1 (Ccnd1), yeast two-hybrid bait (UniProt P24385); assay: two-hybrid; yeast two-hybrid screening, Ccnd1 as bait, adult mouse brain library as prey
# [3] = biological target: endogenous α4 subunit of GABAAR from adult mouse hippocampus (mouse (endogenous in hippocampus)) (UniProt Q9D6F4); assay: co-IP; endogenous α4 precipitated from adult mouse hippocampal extracts in RIPA buffer with a rabbit polyclonal antibody and Protein A magnetic beads; anti-Flag as mock control; washes with RIPA without SDS
# [4] = biological target: Flag-tagged Ccnd1 expressed in HEK-293T cells (human) (UniProt P24385); assay: co-IP; HEK-293T cells 48 h after transfection, RIPA buffer; Flag-Ccnd1 precipitated with M2 Flag antibody and protein G dynabeads; blots with anti-HA and anti-Flag
Substance,binding [2],other results
Flag-Ccnd1 produced by in vitro transcription and translation (from UniProt P24385 1-295),–,binding [1]: binds
"α4 subunit of GABAA receptors, two-hybrid clone spanning amino acids 354–552 (from UniProt Q9D6F4 354-552) (domain or fragment)",binds,–
"α4 subunit of GABAA receptors, two-hybrid clone spanning amino acids 385–552 (from UniProt Q9D6F4 385-552) (domain or fragment)",binds,–
"α4 subunit of GABAA receptors, two-hybrid clone spanning amino acids 386–552 (from UniProt Q9D6F4 386-552) (domain or fragment)",binds,–
endogenous Ccnd1 from adult mouse hippocampus (from UniProt P25322 1-295),–,binding [3]: binds weakly
HA-tagged C-terminal region of α4 (354-552aa) (from UniProt Q9D6F4 354-552) (domain or fragment),–,binding [4]: binds
